Here are results for one substance from article doi:10.1101/178004.

Amino acid sequences for entries named in this document (tags omitted).
UniProt P35222: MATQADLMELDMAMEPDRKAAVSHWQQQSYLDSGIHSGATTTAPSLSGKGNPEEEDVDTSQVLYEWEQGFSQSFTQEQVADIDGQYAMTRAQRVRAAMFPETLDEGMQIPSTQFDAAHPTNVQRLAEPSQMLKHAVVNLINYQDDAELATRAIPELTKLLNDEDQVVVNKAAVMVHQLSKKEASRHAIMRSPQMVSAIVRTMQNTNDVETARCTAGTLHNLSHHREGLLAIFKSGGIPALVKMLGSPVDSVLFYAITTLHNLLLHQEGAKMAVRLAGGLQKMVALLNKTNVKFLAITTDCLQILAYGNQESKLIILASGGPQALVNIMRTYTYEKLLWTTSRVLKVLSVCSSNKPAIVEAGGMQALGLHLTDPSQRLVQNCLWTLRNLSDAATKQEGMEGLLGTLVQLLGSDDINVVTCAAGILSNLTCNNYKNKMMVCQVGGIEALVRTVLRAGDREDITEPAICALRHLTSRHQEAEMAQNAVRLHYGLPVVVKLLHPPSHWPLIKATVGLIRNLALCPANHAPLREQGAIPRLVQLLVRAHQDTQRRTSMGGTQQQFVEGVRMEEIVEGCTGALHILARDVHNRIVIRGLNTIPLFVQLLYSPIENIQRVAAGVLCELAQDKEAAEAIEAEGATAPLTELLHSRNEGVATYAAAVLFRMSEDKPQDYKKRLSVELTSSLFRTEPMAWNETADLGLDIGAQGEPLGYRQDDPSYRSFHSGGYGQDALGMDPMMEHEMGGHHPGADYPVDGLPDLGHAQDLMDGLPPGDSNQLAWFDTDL

No constants are given. Whether binding was seen depends on the method and setting. In cells and extracts the contact can be indirect. Some binding calls cover weakened binding; strength is not graded here.

For this assay, the target named is T1, B-Cell Chronic Lymphocytic Leukaemia/Lymphoma 3 (BCL-3) protein (human (endogenous in SW1463)) (UniProt P20749).
T1 sequence: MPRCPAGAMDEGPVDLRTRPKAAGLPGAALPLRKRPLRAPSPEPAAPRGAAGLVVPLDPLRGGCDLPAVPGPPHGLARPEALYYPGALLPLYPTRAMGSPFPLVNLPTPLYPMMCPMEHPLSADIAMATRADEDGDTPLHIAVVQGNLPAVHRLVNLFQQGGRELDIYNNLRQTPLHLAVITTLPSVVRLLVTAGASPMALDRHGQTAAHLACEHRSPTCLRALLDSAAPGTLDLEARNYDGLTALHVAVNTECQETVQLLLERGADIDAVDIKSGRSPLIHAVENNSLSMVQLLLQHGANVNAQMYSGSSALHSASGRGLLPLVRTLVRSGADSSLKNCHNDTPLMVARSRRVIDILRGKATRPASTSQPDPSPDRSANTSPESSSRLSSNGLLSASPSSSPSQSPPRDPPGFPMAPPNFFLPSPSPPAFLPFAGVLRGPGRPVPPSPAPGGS
Briefly: co-IP.

In the case of β-catenin (from UniProt P35222 1-781), the binding result is “binds”.
